From patent publication US20220268780A1, “METHODS OF PREDICTING ENDOMETRIAL RECEPTIVITY” (HUDSON INSTITUTE OF MEDICAL RESEARCH, priority 2019, published 2022)

B1: Carboxypeptidase M (protein, UniProt P14384 18-423, looked up)
Carboxypeptidase M: LDFNYHRQEGMEAFLKTVAQNYSSVTHLHSIGKSVKGRNLWVLVVGRFPKEHRIGIPEFKYVANMHGDETVGRELLLHLIDYLVTSDGKDPEITNLINSTRIHIMPSMNPDGFEAVKKPDCYYSIGRENYNQYDLNRNFPDAFEYNNVSRQPETVAVMKWLKTETFVLSANLHGGALVASYPFDNGVQATGALYSRSLTPDDDVFQYLAHTYASRNPNMKKGDECKNKMNFPNGVTNGYSWYPLQGGMQDYNYIWAQCFEITLELSCCKYPREEKLPSFWNNNKASLIEYIKQVHLGVKGQVFDQNGNPLPNVIVEVQDRKHICPYRTNKYGEYYLLLLPGSYIINVTVPGHDPHITKVIIPEKSQNFSALKKDILLPFQGQLDSIPVSNPSCPMIPLYRNLPDHS
B2: Podocalyxin (protein, UniProt O00592 23-558, looked up)
Podocalyxin: SPSPSPSPSQNATQTTTDSSNKTAPTPASSVTIMATDTAQQSTVPTSKANEILASVKATTLGVSSDSPGTTTLAQQVSGPVNTTVARGGGSGNPTTTIESPKSTKSADTTTVATSTATAKPNTTSSQNGAEDTTNSGGKSSHSVTTDLTSTKAEHLTTPHPTSPLSPRQPTSTHPVATPTSSGHDHLMKISSSSSTVAIPGYTFTSPGMTTTLLETVFHHVSQAGLELLTSGDLPTLASQSAGITASSVISQRTQQTSSQMPASSTAPSSQETVQPTSPATALRTPTLPETMSSSPTAASTTHRYPKTPSPTVAHESNWAKCEDLETQTQSEKQLVLNLTGNTLCAGGASDEKLISLICRAVKATFNPAQDKCGIRLASVPGSQTVVVKEITIHTKLPAKDVYERLKDKWDELKEAGVSDMKLGDQGPPEEAEDRFSMPLIITIVCMASFLLLVAALYGCCHQRLSQRKDQQRLTEELQTVENGYHDNPTLEVMETSSEMQEKKVVSLNGELGDSWIVPLDNLTKDDLDEEEDTHL
B3: Cytoskeleton-associated protein 4 (protein, UniProt Q07065 1-602, looked up)
Cytoskeleton-associated …: MPSAKQRGSKGGHGAASPSEKGAHPSGGADDVAKKPPPAPQQPPPPPAPHPQQHPQQHPQNQAHGKGGHRGGGGGGGKSSSSSSASAAAAAAAASSSASCSRRLGRALNFLFYLALVAAAAFSGWCVHHVLEEVQQVRRSHQDFSRQREELGQGLQGVEQKVQSLQATFGTFESILRSSQHKQDLTEKAVKQGESEVSRISEVLQKLQNEILKDLSDGIHVVKDARERDFTSLENTVEERLTELTKSINDNIAIFTEVQKRSQKEINDMKAKVASLEESEGNKQDLKALKEAVKEIQTSAKSREWDMEALRSTLQTMESDIYTEVRELVSLKQEQQAFKEAADTERLALQALTEKLLRSEESVSRLPEEIRRLEEELRQLKSDSHGPKEDGGFRHSEAFEALQQKSQGLDSRLQHVEDGVLSMQVASARQTESLESLLSKSQEHEQRLAALQGRLEGLGSSEADQDGLASTVRSLGETQLVLYGDVEELKRSVGELPSTVESLQKVQEQVHTLLSQDQAQAARLPPQDFLDRLSSLDNLKASVSQVEADLKMLRTAVDSLVAYSVKIETNENNLESAKGLLDDLRNDLDRLFVKVEKIHEKV

Each molecule was assayed on human endometrial epithelial cells (HEECs) (assay: LC-MS/MS analysis of plasma membrane-enriched proteins of HEECs). Settings: sample 1, proliferative phase.
For B1, the “Total unique peptides, Samples 1” value was 2. B2 was tested, and the “Total unique peptides, Samples 1” value was 1. In the case of B3, the “Total unique peptides, Samples 1” value is reported as 3.

Same assay, conditions: sample 2, proliferative phase
For B1, the “Total unique peptides, Samples 2” value was 5. With B2 the “Total unique peptides, Samples 2” value was 1. B3 was tested, and the “Total unique peptides, Samples 2” value was 2.

Same assay, conditions: sample 3, proliferative phase
With B1 the “Total unique peptides, Samples 3” value was 2. In the case of B2, the “Total unique peptides, Samples 3” value is reported as 3. For B3, the “Total unique peptides, Samples 3” value was 5.
